This passage reports binding results from paper PMC4559358.

Sequences of proteins named here, by UniProt entry; tags and fusion partners are left off. A change or cut given only in a name is not applied to a line headed by its entry. Residues count along the entry.
UniProt Q62418, residues 377-436: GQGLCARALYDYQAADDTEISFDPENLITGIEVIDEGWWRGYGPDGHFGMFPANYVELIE
UniProt Q9Z0W5: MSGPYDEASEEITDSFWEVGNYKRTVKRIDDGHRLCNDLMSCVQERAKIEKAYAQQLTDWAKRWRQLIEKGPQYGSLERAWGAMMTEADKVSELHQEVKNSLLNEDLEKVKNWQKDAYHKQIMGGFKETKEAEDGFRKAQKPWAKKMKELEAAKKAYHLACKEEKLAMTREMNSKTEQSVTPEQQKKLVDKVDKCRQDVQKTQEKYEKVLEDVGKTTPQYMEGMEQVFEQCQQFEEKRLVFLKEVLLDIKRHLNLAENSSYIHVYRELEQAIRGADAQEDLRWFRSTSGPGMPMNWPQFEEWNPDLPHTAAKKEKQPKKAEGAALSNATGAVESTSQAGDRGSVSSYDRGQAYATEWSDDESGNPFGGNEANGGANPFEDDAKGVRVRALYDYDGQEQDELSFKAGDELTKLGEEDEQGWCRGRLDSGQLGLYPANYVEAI
GST-syndapin I SH3 domain: residues 382-441 of Q9Z0W5
UniProt D3ZUI5: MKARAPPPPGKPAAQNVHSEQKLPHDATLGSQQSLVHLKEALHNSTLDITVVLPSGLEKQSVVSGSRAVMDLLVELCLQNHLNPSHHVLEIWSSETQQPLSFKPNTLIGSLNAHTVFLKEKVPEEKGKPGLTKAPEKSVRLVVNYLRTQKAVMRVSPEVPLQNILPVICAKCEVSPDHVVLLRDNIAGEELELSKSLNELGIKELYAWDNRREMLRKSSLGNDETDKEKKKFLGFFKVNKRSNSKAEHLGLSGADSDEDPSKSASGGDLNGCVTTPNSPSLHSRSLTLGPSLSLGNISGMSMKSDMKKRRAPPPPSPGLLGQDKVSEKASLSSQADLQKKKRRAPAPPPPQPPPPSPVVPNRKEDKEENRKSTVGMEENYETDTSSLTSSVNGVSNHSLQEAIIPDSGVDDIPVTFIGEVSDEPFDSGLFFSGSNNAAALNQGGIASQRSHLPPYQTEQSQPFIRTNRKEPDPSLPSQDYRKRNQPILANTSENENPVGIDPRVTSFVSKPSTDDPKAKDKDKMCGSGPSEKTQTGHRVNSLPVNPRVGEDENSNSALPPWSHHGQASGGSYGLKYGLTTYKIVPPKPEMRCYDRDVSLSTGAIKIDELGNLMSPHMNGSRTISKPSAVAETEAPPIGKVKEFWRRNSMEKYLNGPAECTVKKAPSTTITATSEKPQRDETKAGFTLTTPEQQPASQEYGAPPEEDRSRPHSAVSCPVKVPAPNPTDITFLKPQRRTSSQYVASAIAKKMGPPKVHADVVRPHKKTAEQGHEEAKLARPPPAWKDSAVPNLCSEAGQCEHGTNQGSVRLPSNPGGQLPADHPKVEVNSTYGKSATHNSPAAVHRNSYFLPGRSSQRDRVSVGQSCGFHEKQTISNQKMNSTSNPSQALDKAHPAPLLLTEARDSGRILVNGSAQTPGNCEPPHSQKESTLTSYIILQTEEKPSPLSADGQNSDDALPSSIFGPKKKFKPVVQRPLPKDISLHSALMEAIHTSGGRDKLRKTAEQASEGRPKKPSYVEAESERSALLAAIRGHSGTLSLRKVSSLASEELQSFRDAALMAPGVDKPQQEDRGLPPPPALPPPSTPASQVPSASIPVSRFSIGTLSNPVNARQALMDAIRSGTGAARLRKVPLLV

In one experiment the target is GST-Abp1 SH3 (UniProt Q62418). Kind of experiment: pull-down; purified GST-SH3 domain fusion proteins immobilized on glutathione sepharose, incubated 3 h at 4°C with HEK293 extracts; only the target purified.
Experiment [1] has as its target GST-syndapin I SH3 domain (UniProt Q9Z0W5). Described as above.
In another experiment the target is GFP-Cobl^1-408 (mouse) (UniProt Q5NBX1). The experiment can be described thus: co-IP; as a13 but 500 μM Ca^2+; data not shown.
Experiment [2] addresses endogenous Cobl (rat brain) (rat (endogenous in rat brain)) (UniProt D3ZUI5). Kind of experiment: co-IP; rat brain lysates, guinea pig anti-Cobl antibodies, protein A-agarose, lysis buffer with 30 mM NaCl, 400 μM calpain inhibitor I, with and without 2 μM Ca^2+.

No constants are given. Whether binding was seen depends on the method and setting. In cells and extracts the contact can be indirect. Some entries that bind do so weakly or less than the wild type.

Take “Flag-GFP-Cobl^1-713 (from UniProt Q5NBX1-1 1-713) (domain or fragment)”: the binding result (in the experiment with GST-Abp1 SH3; in experiment [1]) was “binds” each time.
For the substance “Flag-GFP-Cobl^1-713∆48–229 (from UniProt Q5NBX1-1 1-713) (domain or fragment)”, the binding entry (with GST-Abp1 SH3; in experiment [1]) was “binds” each time.
On to “Flag-syndapin I (from UniProt Q9Z0W5 1-441)”, for which, in the experiment with GFP-Cobl^1-408 (mouse), the binding entry is on record as “binds”.
Regarding “endogenous syndapin I (rat brain) (from UniProt Q9Z0W5 1-441)”, in experiment [2], the binding entry was “binds”.
